# Measurements reported in article PMC8500273.
# The chains behind the UniProt entries cited, without tags or fusion partners.
# UniProt P31146: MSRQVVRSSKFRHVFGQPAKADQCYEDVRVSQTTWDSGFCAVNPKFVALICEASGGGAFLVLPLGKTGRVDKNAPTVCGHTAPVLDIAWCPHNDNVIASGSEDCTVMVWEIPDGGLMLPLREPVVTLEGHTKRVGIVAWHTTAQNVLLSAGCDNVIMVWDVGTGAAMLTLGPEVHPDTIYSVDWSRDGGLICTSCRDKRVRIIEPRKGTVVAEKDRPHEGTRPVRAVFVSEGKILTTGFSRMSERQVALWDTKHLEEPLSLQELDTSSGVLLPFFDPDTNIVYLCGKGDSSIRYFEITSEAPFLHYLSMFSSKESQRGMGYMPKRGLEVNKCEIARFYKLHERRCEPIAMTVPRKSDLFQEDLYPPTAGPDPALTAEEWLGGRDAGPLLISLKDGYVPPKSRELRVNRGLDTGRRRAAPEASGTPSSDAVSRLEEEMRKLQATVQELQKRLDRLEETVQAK
# B1: TRIM4 (endogenous, HEK293) (enzyme, UniProt Q9C037 1-500)
# chain: MEAEDIQEELTCPICLDYFQDPVSIECGHNFCRGCLHRNWAPGGGPFPCPECRHPSAPAALRPNWALARLTEKTQRRRLGPVPPGLCGRHWEPLRLFCEDDQRPVCLVCRESQEHQTHAMAPIDEAFESYRTGNFDIHVDEWKRRLIRLLLYHFKQEEKLLKSQRNLVAKMKKVMHLQDVEVKNATQWKDKIKSQRMRISTEFSKLHNFLVEEEDLFLQRLNKEEEETKKKLNENTLKLNQTIASLKKLILEVGEKSQAPTLELLQNPKEVLTRSEIQDVNYSLEAVKVKTVCQIPLMKEMLKRFQVAVNLAEDTAHPKLVFSQEGRYVKNTASASSWPVFSSAWNYFAGWRNPQKTAFVERFQHLPCVLGKNVFTSGKHYWEVESRDSLEVAVGVCREDVMGITDRSKMSPDVGIWAIYWSAAGYWPLIGFPGTPTQQEPALHRVGVYLDRGTGNVSFYSAVDGVHLHTFSCSSVSRLRPFFWLSPLASLVIPPVTDRK
# Biological target: Coro1a, Flag-tagged, ectopically expressed (bait of the mass spectrometry) (human) (UniProt P31146)
# Assay: affinity purification with mass spectrometry; Coro1a ectopically expressed in HEK293 cells, pulled down from cell lysates by anti-Flag beads, SDS-PAGE, gel pieces analysed on a Q Exactive
binder,measurement,value
B1,binding,binds

# These are yes or no findings as the source states them, for the method shown. Binding seen in cells or lysates may run through a third protein. A yes stands for co-enrichment or nearness to the bait. Other partners may have been found.
